{"source": "patent US5804555A", "about": "“Antioxidant” (Morinaga Milk Industry Co., Ltd., priority 1992, dated 1998)", "key": {"[1]": {"assay": "Test 2: inducing period of linoleic acid oxidation (days until absorbance of 0.2 is exceeded)", "assay_type": "biochemical", "conditions": "single addition, final concentration 0.1% in linoleic acid", "description": "The following 11 kinds of sample were prepared.\nSample 2: A sample prepared by adding a hydrolysate of lactoferrin (prepared by the same method as in the Example 2) to linoleic acid to achieve a final concentration of 0.1%;\nSample 3: A sample prepared by adding peptides (prepared by the same method as in the Example 3) to linoleic acid to achieve a final concentration of 0.1%;\nSample 4: A sample prepared by adding vitamin E (dl-α tocopherol the same one as in the Test 1) to linoleic acid to achieve a final concentration of 0.1%;\nSample 5: A sample prepared by adding superoxide dismutase (manufactured by Sigma Company) to linoleic acid to achieve a final concentration of 0.1%;\nSample 6: A sample prepared by adding β-carotene (manufactured by Nakaraitesk Company) to linoleic acid to achieve a final concentration of 0.1%;\nSample 7: A sample prepared by adding vitamin C (manufactured by Nakaraitesk Company) to linoleic acid to achieve a final concentration of 0.1%; […]\nAbsorbance was measured by the same method as in the Test 1, and with the number of days until an absorbance of 0.2 is exceeded as the inducing period, antioxidant effect was tested."}, "[2]": {"assay": "Test 1: antioxidant effect on linoleic acid, peroxides by ferric thiocyanate method", "assay_type": "biochemical", "conditions": "for Degree of peroxidation (absorbance at 500 nm): 0.2% added to linoleic acid, 60° C.", "description": "A sample was prepared by adding dl-α tocopherol (manufactured by Wako Jun-yaku Kogyo Company), bovine lactoferrin (manufactured by Sigma Company), hydrolysate of lactoferrin (prepared by the same method as in the Example 2), or peptide (prepared by the same method as in the Example 3) to a final concentration of 0.2% (weight percentage; same applies hereafter except for the degree of decomposition) to commercially available linoleic acid (manufactured by Wako Jun-Yaku Kogyo Company) containing no additive. Hereafter, the thus prepared samples are individually referred to as […].\nAntioxidant effect of the individual samples was tested by the method of Mitsuda et al.(Eiyo to Shokuryo, Vol. 19, p. 210, 1966) described below.\nThe above-mentioned samples were added to a mixed solution containing 10 ml of ethanol, 10 ml of 0.1M phosphate buffer solution (pH: 7.0), and 5 ml of deionized water so as to achieve a final concentration of linoleic acid of […](mol/l). This solution was placed in a vial bottle having a capacity of 50 ml, and the closely plugged bottle was held in an incubator at 60° C. The total volume was always adjusted to 25 ml by reducing the above-mentioned ionized water, depending upon the quantity of added sample. At prescribed time intervals, 0.1 ml was sampled from this vial bottle to measure the quantity of peroxides by the following ferric thiocyanate method.\nTo the sample solution in an amount of 0.1 ml, 4.7 ml of 75% ethanol, 0.1 ml of 30% ammonium rhodanide, and 0.1 ml of 3.5% hydrochloric acid solution of 2×10^-2 M ferrous chloride were added, and absorbance at 500 nm was measured upon the lapse of just three minutes."}}, "note": "Part of at least one peptide drawing is inferred or uncertain, most often the ends."}
{"smiles": "CC[C@H](C)[C@@H]1NC(=O)[C@H](CO)NC(=O)[C@@H]2CCCN2C(=O)[C@H](C)NC(=O)CNC(=O)[C@H](CC(C)C)NC(=O)[C@H](CCCCN)NC(=O)[C@H](CCCCN)NC(=O)[C@H](CCSC)NC(=O)[C@H](CCCNC(=N)N)NC(=O)[C@H](Cc2c[nH]c3ccccc23)NC(=O)[C@H](CCC(N)=O)NC(=O)[C@H](Cc2c[nH]c3ccccc23)NC(=O)[C@H](CCCNC(=N)N)NC(=O)[C@H](CCCNC(=N)N)NC(=O)[C@@H](NC(=O)[C@H](CCCCN)NC(=O)[C@@H](N)Cc2ccccc2)CSSC[C@@H](C(=O)N[C@H](C(=O)N[C@@H](CCCNC(=N)N)C(=O)N[C@@H](CCCNC(=N)N)C(=O)N[C@@H](C)C(=O)N[C@@H](Cc2ccccc2)C(=O)O)C(C)C)NC(=O)[C@H]([C@@H](C)O)NC1=O", "note": "[Sample 5]", "values": [{"measurement": "Inducing period", "setting": "[1]", "value": 20, "unit": "days"}, {"measurement": "Degree of peroxidation (absorbance at 500 nm)", "setting": "[2]; period of preservation 0 days", "value": 0}, {"measurement": "Degree of peroxidation (absorbance at 500 nm)", "setting": "[2]; period of preservation 3 days", "value": 0.05}, {"measurement": "Degree of peroxidation (absorbance at 500 nm)", "setting": "[2]; period of preservation 6 days", "value": 0.07}, {"measurement": "Degree of peroxidation (absorbance at 500 nm)", "setting": "[2]; period of preservation 10 days", "value": 0.11}, {"measurement": "Degree of peroxidation (absorbance at 500 nm)", "setting": "[2]; period of preservation 13 days", "value": 0.10}, {"measurement": "Prevention of oxidation of linoleic acid (in words)", "setting": "[2]; single addition 0.2%, compared with sample 3 (lactoferrin) and Sample 2 (dl-α tocopherol)", "value": "more remarkably"}]}
